Assay results from paper PMC8455679.
Read-outs that look alike come from different tables or passages of the source. No constants are given. Whether binding was seen depends on the method and setting. In cells and extracts the contact can be indirect. Some entries that bind do so weakly or less than the wild type.

Sequences of proteins named here, by UniProt entry; tags and fusion partners are left off.
UniProt P18583: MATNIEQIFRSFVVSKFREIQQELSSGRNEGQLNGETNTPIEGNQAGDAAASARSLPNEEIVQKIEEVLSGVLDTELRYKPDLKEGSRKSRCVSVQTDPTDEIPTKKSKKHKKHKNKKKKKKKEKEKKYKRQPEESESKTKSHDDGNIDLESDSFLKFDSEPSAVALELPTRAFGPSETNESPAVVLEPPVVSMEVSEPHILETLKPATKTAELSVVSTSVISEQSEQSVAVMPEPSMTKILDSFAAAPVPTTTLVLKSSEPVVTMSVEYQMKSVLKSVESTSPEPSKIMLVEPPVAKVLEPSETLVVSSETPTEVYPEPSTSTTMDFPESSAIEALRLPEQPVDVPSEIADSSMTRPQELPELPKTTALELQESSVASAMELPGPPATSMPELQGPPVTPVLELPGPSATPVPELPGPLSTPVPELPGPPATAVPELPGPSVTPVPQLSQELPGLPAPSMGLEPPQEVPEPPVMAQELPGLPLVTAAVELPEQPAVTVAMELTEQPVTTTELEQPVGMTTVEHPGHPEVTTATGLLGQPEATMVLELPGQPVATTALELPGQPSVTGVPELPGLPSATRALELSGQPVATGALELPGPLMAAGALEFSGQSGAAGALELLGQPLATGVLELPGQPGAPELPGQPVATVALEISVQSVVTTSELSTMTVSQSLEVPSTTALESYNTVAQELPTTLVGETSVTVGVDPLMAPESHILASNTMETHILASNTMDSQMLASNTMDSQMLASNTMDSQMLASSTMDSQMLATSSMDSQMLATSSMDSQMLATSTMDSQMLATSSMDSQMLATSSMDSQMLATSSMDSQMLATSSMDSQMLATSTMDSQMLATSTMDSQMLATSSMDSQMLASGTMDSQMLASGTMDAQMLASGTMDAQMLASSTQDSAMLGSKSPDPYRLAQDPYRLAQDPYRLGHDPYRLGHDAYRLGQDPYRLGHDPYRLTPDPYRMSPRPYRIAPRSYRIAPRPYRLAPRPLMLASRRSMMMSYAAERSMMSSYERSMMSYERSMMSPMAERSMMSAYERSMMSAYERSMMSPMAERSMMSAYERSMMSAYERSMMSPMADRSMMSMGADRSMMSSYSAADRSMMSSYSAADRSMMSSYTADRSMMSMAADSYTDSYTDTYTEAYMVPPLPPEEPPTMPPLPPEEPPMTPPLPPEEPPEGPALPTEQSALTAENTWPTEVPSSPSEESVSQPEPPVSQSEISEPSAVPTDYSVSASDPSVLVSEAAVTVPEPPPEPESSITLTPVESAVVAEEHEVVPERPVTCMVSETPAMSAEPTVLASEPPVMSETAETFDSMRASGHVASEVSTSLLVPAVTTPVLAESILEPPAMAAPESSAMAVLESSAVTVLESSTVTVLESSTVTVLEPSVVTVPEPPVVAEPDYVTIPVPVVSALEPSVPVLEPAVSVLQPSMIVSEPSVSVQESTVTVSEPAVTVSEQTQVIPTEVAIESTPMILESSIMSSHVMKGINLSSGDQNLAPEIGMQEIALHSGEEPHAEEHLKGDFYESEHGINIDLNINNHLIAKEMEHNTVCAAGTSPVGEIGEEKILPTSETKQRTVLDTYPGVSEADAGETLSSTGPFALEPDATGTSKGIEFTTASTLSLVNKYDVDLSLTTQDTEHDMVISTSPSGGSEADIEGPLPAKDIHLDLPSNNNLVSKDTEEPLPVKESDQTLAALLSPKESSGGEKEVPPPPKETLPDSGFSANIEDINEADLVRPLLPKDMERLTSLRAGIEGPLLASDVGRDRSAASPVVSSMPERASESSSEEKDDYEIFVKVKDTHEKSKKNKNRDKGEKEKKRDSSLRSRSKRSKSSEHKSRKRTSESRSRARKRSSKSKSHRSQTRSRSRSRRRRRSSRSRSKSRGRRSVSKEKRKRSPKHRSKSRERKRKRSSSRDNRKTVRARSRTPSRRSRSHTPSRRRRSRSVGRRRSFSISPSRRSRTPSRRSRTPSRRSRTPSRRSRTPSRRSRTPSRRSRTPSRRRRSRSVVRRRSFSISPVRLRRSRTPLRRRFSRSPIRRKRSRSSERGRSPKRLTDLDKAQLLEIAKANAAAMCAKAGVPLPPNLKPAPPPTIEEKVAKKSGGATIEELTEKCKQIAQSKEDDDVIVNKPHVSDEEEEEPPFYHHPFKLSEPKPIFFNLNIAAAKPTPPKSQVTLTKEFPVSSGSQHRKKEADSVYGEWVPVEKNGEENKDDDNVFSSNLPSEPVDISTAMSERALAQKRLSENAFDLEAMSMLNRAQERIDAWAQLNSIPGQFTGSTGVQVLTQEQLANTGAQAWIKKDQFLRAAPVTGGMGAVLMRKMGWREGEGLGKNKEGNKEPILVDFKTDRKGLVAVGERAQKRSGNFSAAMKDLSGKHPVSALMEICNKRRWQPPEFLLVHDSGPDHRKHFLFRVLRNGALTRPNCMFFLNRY

T1: RBFOX2 (human (endogenous in U87MG)) (UniProt O43251)
T1 sequence: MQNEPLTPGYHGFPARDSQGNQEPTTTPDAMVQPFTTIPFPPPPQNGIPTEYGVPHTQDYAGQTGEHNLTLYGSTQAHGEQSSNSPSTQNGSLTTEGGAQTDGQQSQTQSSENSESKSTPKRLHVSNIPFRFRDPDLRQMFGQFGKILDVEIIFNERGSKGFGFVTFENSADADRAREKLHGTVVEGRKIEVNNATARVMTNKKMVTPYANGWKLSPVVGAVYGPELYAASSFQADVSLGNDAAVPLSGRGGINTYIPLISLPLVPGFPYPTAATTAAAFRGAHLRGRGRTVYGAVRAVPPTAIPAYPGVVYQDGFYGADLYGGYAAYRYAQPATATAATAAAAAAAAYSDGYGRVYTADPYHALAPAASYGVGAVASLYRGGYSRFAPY


What was measured:
Test in all cases: co-IP; U87MG cell lysates (50 mM Tris-HCl pH 8.0, 150 mM NaCl, 0.5% NP-40, 10% glycerol, 50 U/mL benzonase) immunoprecipitated with rabbit IgG, SON antibody or RBFOX2 antibody and protein A-Sepharose at 4 °C overnight; Western blot
[1] = molecular target: T1, RBFOX2 (human (endogenous in U87MG))
[2] = molecular target: SON (human (endogenous in U87MG)) (UniProt P18583)
[3] = substrate: SON (human (endogenous in U87MG)) (UniProt P18583); remark: listed apart in the source

binding [1] | binding [2] | binding [3] | Molecule
no binding | binds | – | hnRNP K (from UniProt P61978 1-463)
binds | – | binds | hnRNP M (protein, UniProt P52272 1-730) MAAGVEAAAEVAATEIKMEEESGAPGVPSGNGAPGPKGEGERPAQNEKRKEKNIKRGGNRFEPYANPTKRYRAFITNIPFDVKWQSLKDLVKEKVGEVTYVELLMDAEGKSRGCAVVEFKMEESMKKAAEVLNKHSLSGRPLKVKEDPDGEHARRAMQKVMATTGGMGMGPGGPGMITIPPSILNNPNIPNEIIHALQAGRLGSTVFVANLDYKVGWKKLKEVFSMAGVVVRADILEDKDGKSRGIGTVTFEQSIEAVQAISMFNGQLLFDRPMHVKMDERALPKGDFFPPERPQQLPHGLGGIGMGLGPGGQPIDANHLNKGIGMGNIGPAGMGMEGIGFGINKMGGMEGPFGGGMENMGRFGSGMNMGRINEILSNALKRGEIIAKQGGGGGGGSVPGIERMGPGIDRLGGAGMERMGAGLGHGMDRVGSEIERMGLVMDRMGSVERMGSGIERMGPLGLDHMASSIERMGQTMERIGSGVERMGAGMGFGLERMAAPIDRVGQTIERMGSGVERMGPAIERMGLSMERMVPAGMGAGLERMGPVMDRMATGLERMGANNLERMGLERMGANSLERMGLERMGANSLERMGPAMGPALGAGIERMGLAMGGGGGASFDRAIEMERGNFGGSFAGSFGGAGGHAPGVARKACQIFVRNLPFDFTWKMLKDKFNECGHVLYADIKMENGKSKGCGVVKFESPEVAERACRMMNGMKLSGREIDVRIDRNA
– | – | no binding | RBFOX2 (protein, UniProt O43251 1-390) MQNEPLTPGYHGFPARDSQGNQEPTTTPDAMVQPFTTIPFPPPPQNGIPTEYGVPHTQDYAGQTGEHNLTLYGSTQAHGEQSSNSPSTQNGSLTTEGGAQTDGQQSQTQSSENSESKSTPKRLHVSNIPFRFRDPDLRQMFGQFGKILDVEIIFNERGSKGFGFVTFENSADADRAREKLHGTVVEGRKIEVNNATARVMTNKKMVTPYANGWKLSPVVGAVYGPELYAASSFQADVSLGNDAAVPLSGRGGINTYIPLISLPLVPGFPYPTAATTAAAFRGAHLRGRGRTVYGAVRAVPPTAIPAYPGVVYQDGFYGADLYGGYAAYRYAQPATATAATAAAAAAAAYSDGYGRVYTADPYHALAPAASYGVGAVASLYRGGYSRFAPY
